{"source": "patent US20210308034A1", "about": "“PREBIOTIC COMPOSITIONS AND METHODS FOR MAINTAINING A HEALTHY SKIN MICROBIOTA” (KIMBERLY-CLARK WORLDWIDE, INC., priority 2018, published 2021)", "tested_on": "Pseudomonas aeruginosa (ATCC 9027)", "assay_type": "cell-based", "conditions": "Pathogenic; carbon microarray plate, OD 600 nm, 36 hr, 33° C.; positive = more than 0.05 OD units above zero; blank cell = not utilized", "excerpt": "After creating desired ratios of various commensal skin bacteria in a healthy skin microbiome, 188 different carbohydrate sources were screened as the next step in determining potential prospects for skin microbiota balancing agents. The screening process was set up to determine which carbohydrate sources promoted commensal and/or pathogenic bacteria as well as to obtain individual and combinations of carbohydrate sources that could serve as microbiota balancing agents that can support or maintain the healthy proportions of commensal skin bacteria of Corynebacterium, Staphylococcus, and Micrococcus. The screening was conducted utilizing Biolog phenotype microarray plates (Hayward, Calif.). Table 1 provides a coded list of the commensal and pathogenic skin bacteria that the carbohydrates were screened against.\nTable 2 provides the results of screening various carbohydrate sources against the commensal and pathogenic bacteria codes listed in Table 1. The Bacteria Codes B, D, E, I, and J are commensal bacteria and are shaded in Table 2 for references purposes. […]\nA tenfold dilution in M9*1 media was performed using 1 mL of the washed bacterial culture. Of the tenfold dilution 200 μL was placed in an untreated 96-well plate (Falcon, Pasadena Tx.) for an initial optical density (OD) reading at a wavelength of 600 nm. […]"}
{"smiles": "NCCC[C@H](N)C(=O)O", "note": "[L-Ornithine]", "values": [{"measurement": "Carbohydrate Screening Results, Bacteria Code F", "result": "Y"}]}
